# Some entries share one result that the patent states for a list of compounds.
# Assay: Metabolic stability in (human) liver microsomes
# Type: in vitro ADME
row,SMILES,stability in liver microsomes (conclusion)
1,"O=C(O)c1ccc2nc(CN3CCC4c5nc(OCc6ccc(C7COC7)cc6F)ccc5COCC4C3)n(C[C@@H]3CCO3)c2c1 (single isomer, unassigned) [Compound 12-B]",good stability in liver microsomes
2,"O=C(O)c1ccc2nc(CN3CCC(c4cccc(OCc5ccc(C6COC6)cc5F)n4)CC3)n(C[C@@H]3CCO3)c2c1 [Compound 1, (S)-2-((4-(6-((2-fluoro-4-(oxetan-3-yl)benzyl)oxy)pyridin-2-yl)piperidin-1-yl)methyl)-1-(oxetan-2-ylmethyl)-1H-benzo[d]imidazole-6-carboxylic acid]",good stability in liver microsomes
3,"O=C(O)c1ccc2nc(CN3CCC(c4cccc(OCc5ccc(C6COC6)cc5Cl)n4)CC3)n(C[C@@H]3CCO3)c2c1 [Compound 2, (S)-2-((4-(6-((2-chloro-4-(oxetan-3-yl)benzyl)oxy)pyridin-2-yl)piperidin-1-yl)methyl)-1-(oxetan-2-ylmethyl)-1H-benzo[d]imidazole-6-carboxylic acid]",good stability in liver microsomes
4,"COc1cc(C2COC2)ccc1COc1cccc(C2CCN(Cc3nc4ccc(C(=O)O)cc4n3C[C@@H]3CCO3)CC2)n1 [Compound 3, (S)-2-((4-(6-((2-methoxy-4-(oxetan-3-yl)benzyl)oxy)pyridin-2-yl)piperidin-1-yl)methyl)-1-(oxetan-2-ylmethyl)-1H-benzo[d]imidazole-6-carboxylic acid]",good stability in liver microsomes
5,"O=C(O)c1ccc2nc(CN3CCC4=C(COCc5ccc(OCc6ccc(C7COC7)cc6F)nc54)C3)n(C[C@@H]3CCO3)c2c1 [Compound 7, (S)-2-((2-((2-fluoro-4-(oxetan-3-yl)benzyl)oxy)-5,8,10,11-tetrahydro-oxepino[4,3-b: 6,5-c′]dipyridin-9(7H)-yl)methyl)-1-(oxetan-2-ylmethyl)-1H-benzo[d]imidazole-6-carboxylic acid]",good stability in liver microsomes
6,"O=C(O)c1ccc2nc(Cc3ccc(-c4cccc(OCc5ccc(C6COC6)cc5F)n4)cc3F)n(C[C@@H]3CCO3)c2c1 [Compound 11, (S)-2-(2-fluoro-4-(6-((2-fluoro-4-(oxetan-3-yl)benzyl)oxy)pyridin-2-yl)benzyl)-1-(oxetan-2-ylmethyl)-1H-benzo[d]imidazole-6-carboxylic acid]",good stability in liver microsomes
